We go through 1 molecule from patent publication US4603142A, “Cholesterol lowering method of use” (Wisconsin Alumni Research Foundation, priority 1984, dated 1986).

Some values come without a unit; they compare only within their column.

This data set can be described thus: Body weight and weight gain in 3-week-old broiler male chickens fed supplemented corn diet. It is filed as in vivo, chicken.

For `CC(C)=CCC/C(C)=C/CC/C(C)=C/CC[C@]1(C)CCc2c(C)c(O)c(C)c(C)c2O1` [Cholesterol inhibitor I, 2,5,7,8-tetramethyl-2 (4,8, 12-trimethyltrideca-3,7, 11-trienyl)chroman-6-ol], the “Influence on weight gain” value (5 ppm, Table 2) is listed as “no influence on weight gain”. Besides, for the setting “corn diet + 5 ppm, one-day-old to three-week-old”, the “Gain in Weight” value came out at 308 gm. The “Body Weight Final” value (corn diet + 5 ppm, three-week-old broiler male chickens, mean ± SD, N = 9) was found to be 356 ± 33.
